According to patent US7956188B2, “Acetamide compounds as fungicides” (Syngenta Crop Protection, Inc., priority 2004, dated 2011):
Some entries share one result that the patent states for a list of compounds.

Key:
Plasmopara viticola = assay: leaf disk assay, Plasmopara viticola (downy mildew of grapevine); assay type: in vivo; conditions: 200 ppm; grapevine leaf disks, preventive, assessed seven days after inoculation
Phytophthora infestans = assay type: in vivo; conditions: 200 ppm; tomato leaf disks, preventive, assessed four days after inoculation
Septoria tritici = Septoria tritici (leaf blotch) growth inhibition in nutrient broth, microtiter plate; assay type: cell-based; conditions: 200 ppm; PDB broth, 24 C, inhibition of growth determined photometrically after 72 hrs
Pythium ultimum = Pythium ultimum (Damping off) growth inhibition in potato dextrose broth, microtiter plate; assay type: cell-based; conditions: 20 ppm, 24° C., inhibition of growth determined photometrically after 48 hours
[1] = tested on: Erysiphe graminis f.sp. hordei; assay: leaf disk assay, Erysiphe graminis f.sp. hordei (barley powdery mildew); assay type: in vivo; conditions: 200 ppm; barley leaf segments, preventive, assessed four days after inoculation

Measured: control of fungal infection

CCC(C)(C)NC(=O)C(Oc1ccc2ncc(Br)cc2c1)SC (stereo not drawn) [16 (57)]
≥ 60%: Plasmopara viticola | Phytophthora infestans | Septoria tritici

CSCC(C)(C)NC(=O)C(Oc1cc(C)c2ncc(Br)cc2c1)SC (stereo not drawn) [50 (72)]
≥ 60%: Phytophthora infestans | Septoria tritici | Pythium ultimum

C=CCOCC(C)(C)NC(=O)C(Oc1cc(C)c2ncc(Br)cc2c1)SC (stereo not drawn) [220 (72)]
≥ 60%: Phytophthora infestans | Septoria tritici

CCOCC(C)(C)NC(=O)C(Oc1cc(C)c2ncc(Br)cc2c1)SC (racemic) [68 (72)]
not listed: [1]
≥ 60%: all other assays above

COCC(C)(C#N)NC(=O)C(Oc1ccc2ncc(I)cc2c1)SC (stereo not drawn) [52 (58A)]
not listed: [1]
≥ 60%: all other assays above

CSC(Oc1ccc2ncc(Br)cc2c1)C(=O)NC(C)(C)C (stereo not drawn) [12 (57), 2-(3-bromoquinolinyl-6-oxy)-2-methylthio-N-(2-methylprop-2-yl)acetamide]
≥ 60%: all assays above

CSC(Oc1ccc2ncc(Br)cc2c1)C(=O)NCCF (stereo not drawn) [236 (57)]
≥ 60%: Phytophthora infestans | Septoria tritici | Pythium ultimum

CSC(Oc1ccc2ncc(Br)cc2c1)C(=O)NC(C)(C)COCc1ccccc1 (stereo not drawn) [224 (57)]
not listed: [1]
≥ 60%: all other assays above

COCC(C)(C#N)NC(=O)C(Oc1cc(C)c2ncc(I)cc2c1)SC (mixture of isomers) [52 (72A)]
≥ 60%: Phytophthora infestans | Septoria tritici | Pythium ultimum

CCOCC(C)(C)NC(=O)C(Oc1cc(Br)c2ncc(Br)cc2c1)SC (stereo not drawn) [68 (61)]
not listed: [1]
≥ 60%: all other assays above

COCC(C)(C)NC(=O)C(Oc1cc(Cl)c2ncc(Br)cc2c1)SC (stereo not drawn) [47 (62)]
≥ 60%: Phytophthora infestans | Septoria tritici | Pythium ultimum

CSC(Oc1cc(Cl)c2ncc(Br)cc2c1)C(=O)NC(C)(C)COCc1ccccc1 (racemic) [224 (62)]
≥ 60%: Phytophthora infestans | Septoria tritici

CSCC(C)(C)NC(=O)C(Oc1cc(Cl)c2ncc(Br)cc2c1)SC (racemic) [50 (62)]
≥ 60%: Phytophthora infestans | Septoria tritici | Pythium ultimum

C=CCOCC(C)(C)NC(=O)C(Oc1ccc2ncc(Br)cc2c1)SC (stereo not drawn) [220 (57)]
not listed: [1]
≥ 60%: all other assays above

C=CCOCC(C)(C)NC(=O)C(Oc1cc(Br)c2ncc(Br)cc2c1)SC (stereo not drawn) [220 (61)]
≥ 60%: Plasmopara viticola | Phytophthora infestans | Septoria tritici

C=CCOCC(C)(C)NC(=O)C(Oc1cc(Cl)c2ncc(Br)cc2c1)SC (stereo not drawn) [220 (62)]
not listed: [1]
≥ 60%: all other assays above

CSC(Oc1ccc2ncc(Br)cc2c1)C(=O)NC(C)C1CC1 (stereo not drawn) [235 (57)]
≥ 60%: Plasmopara viticola | Septoria tritici | Pythium ultimum

COCC(C)(C#N)NC(=O)C(Oc1ccc2ncc(Br)cc2c1)SC (mixture of isomers) [52 (57)]
not listed: Septoria tritici
≥ 60%: all other assays above

CSC(Oc1ccc2oc3ccccc3c2c1)C(=O)NC(C)(C#N)CC(C)C (stereo not drawn) [230 (50)]
≥ 60%: Septoria tritici

COCC(C)(C#N)NC(=O)C(Oc1cc(C)c2ncc(Br)cc2c1)SC (mixture of isomers) [52 (72)]
not listed: [1]
≥ 60%: all other assays above

CSC(Oc1cc(Br)c2ncccc2c1)C(=O)NC(C)(C)C (stereo not drawn) [12 (60)]
not listed: [1]
≥ 60%: all other assays above

CSC(Oc1cc(Cl)cc(Cl)c1)C(=O)NC(C)(C)C (stereo not drawn) [12 (1), 2-(3,5-dichlorophenoxy)-2-methylthio-N-2-methylprop-2-yl acetamide]
≥ 60%: all assays above

COCC(C)(C)NC(=O)C(Oc1cc(C)c2ncc(Br)cc2c1)SC (racemic) [47 (72)]
not listed: [1]
≥ 60%: all other assays above

CSC(Oc1ccc2occc2c1)C(=O)NC(C)(C)C (stereo not drawn) [12 (44)]
not listed: [1]
≥ 60%: all other assays above

CCOCC(C)(C)NC(=O)C(Oc1ccc2ncc(Br)cc2c1)SC (racemic) [68 (57)]
not listed: [1]
≥ 60%: all other assays above

COCC(C)(COC)NC(=O)C(Oc1ccc2ncc(Br)cc2c1)SC (stereo not drawn) [43 (57)]
not listed: Septoria tritici
≥ 60%: all other assays above

CCC(C)(C)NC(=O)C(Oc1cc(Br)c2ncc(Br)cc2c1)SC (stereo not drawn) [16 (61)]
≥ 60%: Septoria tritici

CSC(Oc1ccc2ncc(I)cc2c1)C(=O)NC(C)(C)C (stereo not drawn) [12 (58A), 2-(3-iodo-quinolinyl-6-oxy)-2-methylthio-N-(2-methylprop-2-yl)acetamide]
not listed: [1]
≥ 60%: all other assays above
